This note sets out measurements from PubChem BioAssay AID1347426 (Functional Genomics Laboratory (NCATS/FGL), 2020).

Out of some 31,000 sequences screened, about 1,400 (4.5%) were called active.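 The calls were made as follows: active = median seed-adjusted z-score above 1 or below -1; inactive = the rest.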 Some of the results follow.

This experiment can be described thus: Novel Modifiers of Survival Motor Neuron (SMN) Protein: Gene Identification via Genome-wide siRNA Screen.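 Also: luminescence tracks full-length SMN protein made from the SMN2 reporter.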 The following applies: HEK293T SMN2-luciferase reporter, siRNA knockdown, 72 h; actives lie on both sides. The procedure, abridged:
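Each of three siRNAs per gene is reverse-transfected (1 pmol) into reporter HEK293T cells whose luciferase output tracks SMN protein level. After 72 h culture, ONE-Glo luminescence is control-normalized, log10-transformed and MAD-standardized; Common Seed Analysis deprioritizes seed-driven hits.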
Turning to AGGAAUCCCUUGUCCUUUUTT against NFKBIE, the median seed-adjusted z-score was inactive: -0.452.

In the case of AGGGACUGGUGGUCAAGAUTT against NTRK1, the median seed-adjusted z-score was inactive: -0.223.

Consider CCCGCGAAGUUUUACGGAUTT against HOXD8, for which the median seed-adjusted z-score is inactive: -0.883.

With GGAACAAAUCCAUAAGUGUTT against TRIM10, the median seed-adjusted z-score was inactive: -0.0934.

For CAUGAGAAGUAUGACAACATT against GAPDH, the median seed-adjusted z-score is inactive: 0.479.

Consider CCAUCGGCUUGAUCAGGAATT against JUP, for which the median seed-adjusted z-score is inactive: 0.15.

For CGAUCAGACCUCAAGGACATT against SCARF1, the median seed-adjusted z-score is inactive: -0.324.

With GCAUGGUCAUAGGCCUGAUTT against CYB561, the median seed-adjusted z-score is inactive: 0.

Take GCUCUGUCCGUAUCGAUCATT against RNASEN: the median seed-adjusted z-score is inactive: 0.524.

On to GAGAUGCUGCGAUUCUACATT against ACBD4, for which the median seed-adjusted z-score is inactive: -0.363.

Turning to UCAGCUUCAGCUUAACUGATT against TUBA1B, the median seed-adjusted z-score was inactive: 0.0888.

In the case of ACCUCACCAAGAUCACAAATT against SHBG, the median seed-adjusted z-score is inactive: 0.587.

Turning to UGAAGAACCUGGACGCCAATT against CCL24, the median seed-adjusted z-score is inactive: 0.

For GGGCACGGGUGAUAUGAAUTT against CTDP1, the median seed-adjusted z-score is active: -2.29.

For the sequence CAUAGGAACUUUUCACUUATT against MARCKS, the median seed-adjusted z-score was inactive: 0.379.

For GCAUGAAUGUGACUGAACUTT against RHOXF2, the median seed-adjusted z-score was inactive: -0.331.

Regarding CAGGAAGUCUGACCAAUAATT against LPL, the median seed-adjusted z-score was inactive: 0.389.

In the case of GCCUGCUUCUGUAACCUGATT against WISP1, the median seed-adjusted z-score is inactive: -0.0121.

In the case of CCAGUUGACUUUUACCGAUTT against SLIT2, the median seed-adjusted z-score was inactive: -0.592.

As to CCAGCAAGUAGAUAUAGAATT against COIL, the median seed-adjusted z-score was inactive: 0.

On to GAAUGAUCCUUUCCUCUCATT against CREB3L2, for which the median seed-adjusted z-score was inactive: -0.192.

On to GAAUUAGCAUCAACACCUUTT against GUCY1A2, for which the median seed-adjusted z-score was inactive: -0.186.

With AUAAUUACGGUGACUCUAATT against KIF25, the median seed-adjusted z-score is inactive: -0.0031.

Take GGACUAUUUCCUCAAGUUUTT against TRIM47: the median seed-adjusted z-score is inactive: 0.707.

As to CAGAAACUUUCGAACAAAATT against POU3F1, the median seed-adjusted z-score was inactive: 0.279.

Regarding CGACUUCUACUACAUGGAUTT against CHST8, the median seed-adjusted z-score was inactive: 0.341.

For CAACGUAAUAGUUCUGGAATT against IL2, the median seed-adjusted z-score is inactive: 0.0694.

Take CAGUGACCACUGAUACUAATT against CYP2C8: the median seed-adjusted z-score was inactive: 0.371.

As to GGUGAACACCAUUACCGAATT against MAP3K5, the median seed-adjusted z-score is inactive: -0.285.

Take GGAACAUUUUCGUUGCUGUTT against IFNGR2: the median seed-adjusted z-score was inactive: 0.148.

Take CCACAAGAGUUCGAACUCATT against ZFX: the median seed-adjusted z-score is inactive: -0.581.

As for AGCUCAAACUUUGAGAGCATT against SOX4, the median seed-adjusted z-score was inactive: -0.188.

For GCAGGAUAAUAAAAACUUGTT against EPHA10, the median seed-adjusted z-score was inactive: 0.502.

Regarding AGUUCAUUCUGACAGAUGATT against VDR, the median seed-adjusted z-score is inactive: -0.031.

For GAGCAAGACUUCUACGUGATT against SERPINA5, the median seed-adjusted z-score was active: -1.01.

With GAACUACAGAAGACGAUAUTT against MDM4, the median seed-adjusted z-score was inactive: 0.0554.

Consider GGCUAGUGAUAUACUAUAUTT against RPS6KA6, for which the median seed-adjusted z-score was inactive: -0.0821.

With GGAUUUCCAGGGAUAUUUATT against CDKN2B, the median seed-adjusted z-score is inactive: 0.0154.

Consider CAGUAUCUCCUGCAUCAAATT against DDX24, for which the median seed-adjusted z-score is inactive: 0.246.

On to GGCCGAGUCUUGGAUUAGATT against MUC4, for which the median seed-adjusted z-score was inactive: 0.128.

With GCGCUGUGCAAGACAGUCATT against OPRL1, the median seed-adjusted z-score is inactive: -0.9.

As for CGACACCGGAUAAACCAAATT against HES1, the median seed-adjusted z-score was inactive: -0.262.

As to GCCGUUUAAUACCCGAUGATT against RNF125, the median seed-adjusted z-score was inactive: 0.204.

With AGGGAACAAGUUUACCAAATT against GTF2IRD1, the median seed-adjusted z-score was inactive: -0.282.

Consider GCAGACUCUCGACAUCCGATT against MAFK, for which the median seed-adjusted z-score is active: 1.73.

As to CGUGGUCACUGUCUCUGAATT against RFX1, the median seed-adjusted z-score was inactive: 0.818.

On to GAAUAUGCCUACGUGCUAATT against METTL1, for which the median seed-adjusted z-score was inactive: 0.0494.

For the sequence AAAUAGUAAGAGAUGUUGUTT against SPSB2, the median seed-adjusted z-score is inactive: -0.741.

For GGACAGUAAUUUUGAUAGUTT against ADAM2, the median seed-adjusted z-score is inactive: -0.116.

GCUAUAUGCUGGAGACAAATT against MPP4: the median seed-adjusted z-score was inactive: 0.13.

For “GCUCCGAGGAGAAUGCAAATT against SLC22A18AS”, the median seed-adjusted z-score is inactive: 0.0382.

For the sequence GCUUCAAGAUGUACAUGCATT against IFIT5, the median seed-adjusted z-score was inactive: 0.

For GAAGUAUGAUGACUCCUUUTT against MAPK12, the median seed-adjusted z-score is inactive: 0.0649.

As to CAUUGAGGGCCGAAAAGAATT against SGCA, the median seed-adjusted z-score is inactive: 0.144.

Turning to GCCUCAAUGUCGUGGAGAATT against FRAG1, the median seed-adjusted z-score was inactive: -0.554.

On to CCACGAUGAAGGAACGAGATT against PDE4A, for which the median seed-adjusted z-score was inactive: -0.147.

For the sequence GAAGAUAUCUGACUCAAAATT against GPR156, the median seed-adjusted z-score is inactive: 0.

With GGCUUGGUGUUGCUAGCUUTT against RNF26, the median seed-adjusted z-score is inactive: 0.359.

As for AAAGCUUUCUGGUUAGAUUTT against TUBA1B, the median seed-adjusted z-score is inactive: 0.0888.

Take CCGCAGAUGCAAAAGCUUUTT against GSTA3: the median seed-adjusted z-score was inactive: 0.334.

As to GAAUACCUGAAGUUCGAUATT against NDUFA10, the median seed-adjusted z-score is inactive: -0.392.

For the sequence GGAAUACAUCAGAAUGGUATT against ITCH, the median seed-adjusted z-score was inactive: 0.199.

Turning to CCGCUCGCUUAGGAACUUATT against CHPT1, the median seed-adjusted z-score is inactive: 0.0678.

Consider AUAUGAACGGAAUAAAUAATT against UBE2V2, for which the median seed-adjusted z-score is inactive: 0.556.

Take GAAUGAUAUUGUCCAUCGATT against CDKL5: the median seed-adjusted z-score is inactive: -0.256.

Regarding GGCUUCAACUACAACAGCATT against FBN3, the median seed-adjusted z-score is inactive: 0.264.

As to GACUUUACAUAUAAGAGCATT against DUSP19, the median seed-adjusted z-score was inactive: 0.343.

On to AGAGGAACCUGGCCGUGAATT against D2HGDH, for which the median seed-adjusted z-score was inactive: -0.637.

With GCAUUAGCAUGGACCGGUATT against CCR6, the median seed-adjusted z-score was inactive: 0.103.

Consider CCACCUUGCAGAAAACCGATT against ITPR3, for which the median seed-adjusted z-score was active: -1.28.

As to CCAUGAGCAAGAACGAUUATT against ALPK1, the median seed-adjusted z-score is inactive: -0.0149.

For ACCUCUCACUUUGCUGUGATT against FCRLB, the median seed-adjusted z-score is inactive: -0.00684.

In the case of CAGACAGAAGAAUAUGUAATT against LSM6, the median seed-adjusted z-score is inactive: -0.0501.

ACCACCAAAUGAAGAAUAATT against AKR7A3: the median seed-adjusted z-score is inactive: 0.455.

For the sequence CCAACUCCAGGUUACCCAATT against NCOR1, the median seed-adjusted z-score was inactive: 0.0767.

Take CAGAGAUUGAGGAAGCUAATT against PKD2: the median seed-adjusted z-score is inactive: 0.219.

As for CGAGGAAUACAACACCAAUTT against GAK, the median seed-adjusted z-score is inactive: 0.488.

ACACGACGGUGUUUCCCUUTT against CYP11B1: the median seed-adjusted z-score was inactive: -0.199.

ACCCGCAAGAGGUUCUUUATT against SARM1: the median seed-adjusted z-score was inactive: 0.343.

As to CCUUUGACCAGUCCACUUATT against PCDHAC2, the median seed-adjusted z-score was inactive: -0.107.

For UCCUCGUCCUGGUCAACUATT against SERPINA6, the median seed-adjusted z-score was inactive: 0.615.

GAUCGGAAGUGCCUACAAATT against ADAM23: the median seed-adjusted z-score is inactive: -0.0279.

In the case of UGAGGACCAAUGACCGGAATT against MGAT1, the median seed-adjusted z-score was inactive: 0.138.

With GGGUGUCAGUGUUGCAGAATT against DDEFL1, the median seed-adjusted z-score is inactive: 0.293.

For the sequence GCAAAGAUAAGGAACCCGATT against PAFAH1B3, the median seed-adjusted z-score was inactive: -0.381.

Regarding CUCUUCAUUUUUCGCAUUATT against GJB2, the median seed-adjusted z-score is inactive: -0.408.

For GCUCUUUACGGCUGACAAUTT against IHH, the median seed-adjusted z-score is inactive: 0.0642.

Regarding GAAGAGCGGCAACAAGAUATT against MAST3, the median seed-adjusted z-score was inactive: -0.642.

On to UGAUCGACCUAGACGCAGATT against PCDHA9, for which the median seed-adjusted z-score was inactive: -0.295.

As for GCAGAAAUCCAACUUAGAGTT against CSHL1, the median seed-adjusted z-score is inactive: -0.54.

On to GUGUGAGAAUUACAGUGAATT against ADAMTSL3, for which the median seed-adjusted z-score was inactive: -0.0419.

For GCACUUAACGUAAUCACGATT against CCNH, the median seed-adjusted z-score was inactive: -0.659.

For GGCUUUACGUGGAAGUCAATT against HKR1, the median seed-adjusted z-score is inactive: -0.358.

With GGACUCAAUGAAUUCAAUATT against NEK9, the median seed-adjusted z-score was inactive: 0.0698.

With GGUUGGCAUUGACAACAAATT against TSC22D4, the median seed-adjusted z-score is inactive: -0.508.

For GGAACCUCCUGACCAACAATT against FLRT2, the median seed-adjusted z-score is inactive: -0.00573.

For GGUUAAAAUAUACUCUAUATT against HPCAL4, the median seed-adjusted z-score is inactive: 0.282.

For AAACAGGAGGUGAUCGAUATT against IKBKG, the median seed-adjusted z-score is inactive: -0.615.

With GCAUCGCAGAUGAGGCUUUTT against LRFN2, the median seed-adjusted z-score was inactive: 0.

CCGGAACAUUUAUCCUAUUTT against SMURF2: the median seed-adjusted z-score was inactive: 0.351.

Consider GUAUUGAAACAUAAACGUATT against ZNF148, for which the median seed-adjusted z-score is inactive: 0.307.

For the sequence GAGCUUCACGCAGAACUAUTT against ZNF496, the median seed-adjusted z-score was inactive: -0.971.

As to CCAUCAUUAUAUUCCUCAUTT against MAS1, the median seed-adjusted z-score is inactive: -0.0551.

In the case of GGCUCGUAUACAUCCAUUUTT against TROVE2, the median seed-adjusted z-score was inactive: 0.399.

Take GGAUCGAACAGAUGGAGGATT against NISCH: the median seed-adjusted z-score was inactive: -0.0757.

CUCUCUAACUAAUCGAUCATT against PDE3B: the median seed-adjusted z-score is inactive: -0.0475.

With CACAACAUCUUGUAAGACUTT against GNG13, the median seed-adjusted z-score was inactive: -0.516.
